# Taken from: PubChem BioAssay AID1259308 (NCATS, 2017)
# Aim: 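Genes whose loss raises luciferase production in HEK293 cells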 (primary screen)
# Cell system: human HEK293 embryonic kidney cells stably expressing firefly luciferase (HEK-CMV-Luc2-Hygro)
# Knock-down reagent: single siRNA against human genes, 0.8 pmol siRNA per well
# Duration: 72 h
# Read-out: 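Luciferase light (ONE-Glo) measured on one replicate plate set and viability (CellTiter-Glo) on the other, scaled to a negative control siRNA, with robust z-scores and luciferase per cell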
# Reading the numbers: total luciferase, z-score and total luciferase, % of control: higher = more reporter protein produced
# Active means: 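Active when the median/MAD z-score for overall luciferase is greater than 3; a gene was taken forward for validation with new siRNAs if at least two of its three siRNAs passed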
# Calls: active = raised luciferase; inactive = no rise
# The deposit covers about 59,000 reagents; below is an unselected part. In the full data, about 1,510 (2.6%) were called active. 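Calls use total luciferase alone and ignore viability, so some active siRNAs may act by altering cell number.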 Reagents against one gene are numbered here. Not all columns of the deposit are shown.
gene knocked down,siRNA no.,"total luciferase, z-score","total luciferase, % of control",call
DEFB116 (defensin beta 116),1,-1.23,57.5,inactive
DEFB116 (defensin beta 116),2,2.41,130,inactive
DEFB116 (defensin beta 116),3,1.1,104,inactive
ZNF366 (zinc finger protein 366),1,-0.529,71.4,inactive
ZNF366 (zinc finger protein 366),2,-0.557,70.8,inactive
ZNF366 (zinc finger protein 366),3,-0.821,65.6,inactive
"ALKBH2 (alkB homolog 2, alpha-ketoglutarate dependent dioxygenase)",1,0.26,87.1,inactive
"ALKBH2 (alkB homolog 2, alpha-ketoglutarate dependent dioxygenase)",2,0.837,98.5,inactive
"ALKBH2 (alkB homolog 2, alpha-ketoglutarate dependent dioxygenase)",3,0.491,91.6,inactive
UBN1 (ubinuclein 1),1,-1.65,49,inactive
UBN1 (ubinuclein 1),2,-0.414,73.7,inactive
UBN1 (ubinuclein 1),3,0.494,91.7,inactive
VRK3 (VRK serine/threonine kinase 3),1,1.18,105,inactive
VRK3 (VRK serine/threonine kinase 3),2,-0.174,78.4,inactive
VRK3 (VRK serine/threonine kinase 3),3,-0.223,77.5,inactive
DBNDD2 (dysbindin domain containing 2),1,0.897,99.7,inactive
DBNDD2 (dysbindin domain containing 2),2,3.03,142,active
DBNDD2 (dysbindin domain containing 2),3,0.0856,83.6,inactive
DLGAP1-AS1 (DLGAP1 antisense RNA 1),1,-0.00258,81.8,inactive
DLGAP1-AS1 (DLGAP1 antisense RNA 1),2,2.51,132,inactive
DLGAP1-AS1 (DLGAP1 antisense RNA 1),3,3.03,142,active
BCL7A (BAF chromatin remodeling complex subunit BCL7A),1,0.916,100,inactive
BCL7A (BAF chromatin remodeling complex subunit BCL7A),2,0.371,89.3,inactive
BCL7A (BAF chromatin remodeling complex subunit BCL7A),3,-0.531,71.3,inactive
